Reference: paper PMC9418443
Positions count from the first letter of the chain named. In names and notes the source's numbering stands. No constants are given. Whether binding was seen depends on the method and setting. For some assays here: Binding seen in cells or lysates may run through a third protein. Some results given as binding are weak or reduced against the parent protein; the word gives no strength. Sequences can lack the tags named with a protein.

By UniProt entry, the sequences of proteins in these tests, tags left out. Residues count along the entry.
UniProt Q7K126, residues 522-844: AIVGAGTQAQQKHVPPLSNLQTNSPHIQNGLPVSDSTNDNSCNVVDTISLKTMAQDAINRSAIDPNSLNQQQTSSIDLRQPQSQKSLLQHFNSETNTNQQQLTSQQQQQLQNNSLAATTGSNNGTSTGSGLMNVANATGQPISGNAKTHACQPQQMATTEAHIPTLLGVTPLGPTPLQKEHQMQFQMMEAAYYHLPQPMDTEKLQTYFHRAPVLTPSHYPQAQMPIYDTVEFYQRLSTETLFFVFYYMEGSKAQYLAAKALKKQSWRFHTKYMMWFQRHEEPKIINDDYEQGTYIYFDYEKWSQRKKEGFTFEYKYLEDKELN

T1: Pumilio RD3 (amino acids 847-1090) fused to the Gal4 DNA-binding domain (bait) (Drosophila melanogaster) (UniProt P25822)
T1 sequence: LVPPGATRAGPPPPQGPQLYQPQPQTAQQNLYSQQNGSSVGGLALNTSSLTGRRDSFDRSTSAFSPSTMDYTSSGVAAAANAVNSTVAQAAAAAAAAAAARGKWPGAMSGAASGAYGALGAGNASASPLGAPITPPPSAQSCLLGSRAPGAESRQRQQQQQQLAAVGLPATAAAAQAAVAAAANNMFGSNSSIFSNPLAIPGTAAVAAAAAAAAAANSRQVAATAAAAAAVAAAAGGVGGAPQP

T2: Pumilio RD3 F1033A + F1040A fused to the Gal4 DNA-binding domain (bait) (Drosophila melanogaster) (UniProt P25822)
T2 sequence: T1 sequence with F187A, F194A

T3: Pumilio RD3 F1040A fused to the Gal4 DNA-binding domain (bait) (Drosophila melanogaster) (UniProt P25822)
T3 sequence: T1 sequence with F194A

T4: Pumilio RD3 F1033A fused to the Gal4 DNA-binding domain (bait) (Drosophila melanogaster) (UniProt P25822)
T4 sequence: T1 sequence with F187A

T5: Not2-3×FLAG (Drosophila) (UniProt Q94547)
T5 sequence: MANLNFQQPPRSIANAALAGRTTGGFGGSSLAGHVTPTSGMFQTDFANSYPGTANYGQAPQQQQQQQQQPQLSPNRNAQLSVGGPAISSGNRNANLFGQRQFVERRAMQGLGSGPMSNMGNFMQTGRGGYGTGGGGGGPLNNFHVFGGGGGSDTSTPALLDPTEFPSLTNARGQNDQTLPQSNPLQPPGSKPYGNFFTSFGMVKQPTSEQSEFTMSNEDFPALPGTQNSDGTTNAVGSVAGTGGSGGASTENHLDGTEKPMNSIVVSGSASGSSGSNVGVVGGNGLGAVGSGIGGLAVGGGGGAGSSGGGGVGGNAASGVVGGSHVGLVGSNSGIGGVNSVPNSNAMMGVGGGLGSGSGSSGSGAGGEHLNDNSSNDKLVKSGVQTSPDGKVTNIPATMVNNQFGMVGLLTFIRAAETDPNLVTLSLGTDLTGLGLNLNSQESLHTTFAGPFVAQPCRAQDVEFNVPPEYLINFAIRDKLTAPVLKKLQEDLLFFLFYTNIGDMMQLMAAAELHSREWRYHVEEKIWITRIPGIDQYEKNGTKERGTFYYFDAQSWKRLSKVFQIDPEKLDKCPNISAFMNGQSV

B1: Not2 subunit of the Drosophila CCR4–NOT complex, fused to the Gal4 activation domain (prey) (protein, UniProt Q94547 1-585)
chain: T5 sequence
B2: MS2-RD3-V5, wildtype Pumilio RD3 fused to the MS2 coat protein RNA-binding domain with C-terminal V5 tag (domain or fragment, UniProt P25822 847-1090)
chain: T1 sequence
B3: MS2-RD3-V5 F1033A + F1040A mutant (domain or fragment, UniProt P25822 847-1090)
chain: T1 sequence with F187A, F194A
B4: Pumilio-binding region in Not1 (amino acids 908–995), fused to the Gal4 activation domain (prey) (domain or fragment, UniProt A8DY81 908-995)
chain: VSKEVEDEVNSYFQRIYNHQPNPTLSIDEVLDILQRFKESSNRREQEVFLCMLRNLFEEYRFFCQYPEKELQITAQLFGGIIDRNLVP
B5: Not2 minimal region (amino acids 465–585), fused to the Gal4 activation domain (prey) (domain or fragment, UniProt Q94547 465-585)
chain: NVPPEYLINFAIRDKLTAPVLKKLQEDLLFFLFYTNIGDMMQLMAAAELHSREWRYHVEEKIWITRIPGIDQYEKNGTKERGTFYYFDAQSWKRLSKVFQIDPEKLDKCPNISAFMNGQSV

Legend:
[1] = biological target: T1, Pumilio RD3 (amino acids 847-1090) fused to the Gal4 DNA-binding domain (bait) (Drosophila melanogaster); assay: two-hybrid; yeast two-hybrid in S. cerevisiae Y2H Gold; baits on Gal4 DNA-binding domain (pGBKT7), preys on Gal4 activation domain (pGADT7); growth on -Leu -Trp -His -Ade plates with X-alpha-gal (ADE2, HIS3, MEL1 reporters), 30 °C
[2] = biological target: T2, Pumilio RD3 F1033A + F1040A fused to the Gal4 DNA-binding domain (bait) (Drosophila melanogaster); assay: as above
[3] = biological target: T3, Pumilio RD3 F1040A fused to the Gal4 DNA-binding domain (bait) (Drosophila melanogaster); assay: as above
[4] = biological target: T4, Pumilio RD3 F1033A fused to the Gal4 DNA-binding domain (bait) (Drosophila melanogaster); assay: as above
Not2-3×FLAG (Drosophila) = biological target: T5, Not2-3×FLAG (Drosophila); assay: co-IP; anti-FLAG M2 beads on lysate of Dmel-2 cells cotransfected with Not2-3×FLAG bait and V5-tagged prey; RNase One and RNase A; 50 mM Tris–HCl pH 8.0, 500 mM NaCl, 1 mM EDTA, 0.2% Triton X-100; 4 °C, 3 h; anti-V5 blot
[5] = biological target: Not1-3×FLAG, endogenous Drosophila Not1 with a C-terminal 3×FLAG tag (Drosophila (endogenous in DL1)) (UniProt A8DY81); assay: co-IP; anti-FLAG M2 beads on lysate of DL1 cells with endogenous Not1-3×FLAG, transfected with V5-tagged prey; RNase One and RNase A; 50 mM Tris–HCl pH 8.0, 500 mM NaCl, 1 mM EDTA, 0.2% Triton X-100; 4 °C, 3 h; anti-V5 blot

Molecule | binding [1] | binding [2] | binding (Not2-3×FLAG (Drosophila)) | further results
Not3-C, C-terminal region of Drosophila Not3 (amino acids 522–844), fused to the Gal4 activation domain (prey) (from UniProt Q7K126 522-844) (domain or fragment) | binds | binds | – | –
B1 | binds | binds | – | binding [3]: binds; binding [4]: binds
B2 | – | – | binds | binding [5]: binds
B3 | – | – | binds | –
B4 | binds | – | – | –
B5 | binds | – | – | –
